Results reported in PubChem BioAssay AID493014 (National Center for Advancing Translational Sciences (NCATS), 2011).
This is one part of the list. The main result of the screen is listed elsewhere. These columns were measured beside it and carry no call. Most of these compounds were active or inconclusive in the main read-out, so they are no random draw. Potencies come from curve fits of mixed quality, noted in brackets.

Assay: qHTS Assay to Find Inhibitors of Chronic Active B-Cell Receptor Signaling
Settings: ABC-DLBCL IkBa-CBG/CBR reporter, luminescence ratio (green luciferase fused to IkBa over red control in TMD8 lymphoma cells), 4 h
Outline: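 Doxycycline induced both beetle luciferases in TMD8 lymphoma cells; IKK-driven degradation limits the IkappaBalpha-fused green signal, while red luminescence normalises for cell number and nonspecific effects. Compounds tested up to 46 uM, 4 hrs.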

[1] = measured here: CBR red luminescence, cell number
[2] = measured here: IkBa-CBG green luminescence

## Cc1cc(/C=C(\C#N)C(=O)NCc2ccco2)c(C)n1-c1cccnc1
[1]
  AC50: 22.4 µM [falling, single point]

## CC/C(=N/NC(=O)c1ccc(Br)cc1)c1ccc(OCCN2CCOCC2)cc1
[1]
  AC50: 5.8 µM [falling, partial curve, poor fit]

## O=C(c1cccc(-n2cccc2)c1)N1CCN(S(=O)(=O)c2ccccc2Br)CC1
[1]
  AC50: 2.06 µM [rising, partial curve]

## O=C(Nc1ccc(N2CCCC2)cc1)c1cccc(Cl)c1
[1]
  AC50: 10 µM [falling, partial curve, poor fit]

## CC(=O)C(C(C)=O)C1(O)C(=O)c2ccccc2C1=O
[1]
  AC50: 29.1 µM [rising, single point]
[2]
  AC50: 29.1 µM [falling, single point]

## CC1=C(/C=C/C(C)=C/C=C/C(C)=C/C(=O)O)C(C)(C)CCC1
[1]
  AC50: 35.5 µM [falling, single point]
[2]
  AC50: 3.26 µM [falling, partial curve, poor fit]

## CCOC(=O)C1=C(N)Oc2ccc3ccccc3c2C1c1cccnc1 (centres undefined)
[1]
  AC50: 29.1 µM [falling, single point]

## O=C(NCc1ccccn1)C1CCN(S(=O)(=O)N2CCCC2)CC1
[1]
  AC50: 29.1 µM [falling, single point]

## O=C(c1ccco1)N1CCN(Cc2cn[nH]c2-c2ccc(F)cc2F)CC1
[1]
  AC50: 3.16 µM [falling, single point]

## O=C(NC1CCCCCC1)C1CCN(S(=O)(=O)c2ccccc2)CC1
[1]
  AC50: 6.51 µM [rising, single point]

## Cc1c(/C(O)=C2\C(=O)C(=O)N(CCCN(C)C)C2c2ccncc2)cnn1-c1ccccc1 (centres undefined)
[1]
  AC50: 3.16 µM [rising, partial curve, poor fit]

## N#Cc1c([N+](=O)[O-])cc([N+](=O)[O-])cc1S(=O)(=O)Cc1ccccc1
[1]
  AC50: 0.366 µM [falling, full curve, poor fit]
[2]
  AC50: 2.59 µM [rising, full curve, poor fit]

## Cc1ccc(NC(=O)Cn2c(=O)n(Cc3ccco3)c(=N)c3c4c(sc32)COC(C)(C)C4)cc1
[1]
  AC50: 23.1 µM [falling, single point]

## Cc1ccccc1OCC(=O)NCC(=O)N/N=C/C=C/c1ccccc1
[1]
  AC50: 14.6 µM [rising, partial curve, poor fit]

## Cc1cccc(N2CCN(S(=O)(=O)c3ccc4c(c3)C(C)(C)C(=O)N4C)CC2)c1C
[2]
  AC50: 12.6 µM [rising, partial curve, poor fit]

## COC(=O)c1ccc(/C=C(\C#N)c2nc3ccccc3s2)cc1
[1]
  AC50: 1.26 µM [falling, partial curve, poor fit]
